The source of these data is PMC9151520 (Archives of Toxicology, 2022).

Where “and” joins values, the source holds several entries; their conditions need not be identical. Equal values may be shown once. Where a name gives a salt, the structure may show the parent alone. Read-outs that look alike come from different tables or passages of the source.

The test system of test [1] is p53 signaling (p53RE-bla HCT-116 cells). The test is described as follows: cells. The settings on record: Homo sapiens. The format is cell-based.
Test [2] relates to p53RE-bla HCT-116 cells.
In test [3] the test system is p53RE-bla HCT-116 cells. The test is described as follows: cells. The conditions noted are these: Homo sapiens.

Consider `CSc1ccc2c(c1)N(CCC1CCCCN1C)c1ccccc1S2` (stereo not drawn) [Thioridazine hydrochloride], for which the EC50 in test [1] (HCT-116, read-out: EC50, p53 activation, cherry pick confirmation) was 50 µM; in test [1] (HCT-116, read-out: EC50, p53 activation, primary screening) it was 51.1 µM; in the test on p53RE-bla HCT-116 cells [2] (read-out: EC50, viability, cherry pick confirmation), 37.6 µM and 40.6 µM; with p53RE-bla HCT-116 cells [2] (read-out: EC50, viability, primary screening) it was 47.6 µM and 41.8 µM; in the test on p53RE-bla HCT-116 cells [3] (HCT-116, read-out: EC50, viability, cherry pick confirmation), 37 µM; with p53RE-bla HCT-116 cells [3] (HCT-116, read-out: EC50, viability, primary screening), 38.9 µM.
